These are yes or no findings as the source states them, for the method shown. In cells and extracts the contact can be indirect. Binding can be weak; no strength is given. Sequences can lack the tags named with a protein.
Molecular target: T1, GST-Annexin A6 (UniProt P08133)
T1 sequence: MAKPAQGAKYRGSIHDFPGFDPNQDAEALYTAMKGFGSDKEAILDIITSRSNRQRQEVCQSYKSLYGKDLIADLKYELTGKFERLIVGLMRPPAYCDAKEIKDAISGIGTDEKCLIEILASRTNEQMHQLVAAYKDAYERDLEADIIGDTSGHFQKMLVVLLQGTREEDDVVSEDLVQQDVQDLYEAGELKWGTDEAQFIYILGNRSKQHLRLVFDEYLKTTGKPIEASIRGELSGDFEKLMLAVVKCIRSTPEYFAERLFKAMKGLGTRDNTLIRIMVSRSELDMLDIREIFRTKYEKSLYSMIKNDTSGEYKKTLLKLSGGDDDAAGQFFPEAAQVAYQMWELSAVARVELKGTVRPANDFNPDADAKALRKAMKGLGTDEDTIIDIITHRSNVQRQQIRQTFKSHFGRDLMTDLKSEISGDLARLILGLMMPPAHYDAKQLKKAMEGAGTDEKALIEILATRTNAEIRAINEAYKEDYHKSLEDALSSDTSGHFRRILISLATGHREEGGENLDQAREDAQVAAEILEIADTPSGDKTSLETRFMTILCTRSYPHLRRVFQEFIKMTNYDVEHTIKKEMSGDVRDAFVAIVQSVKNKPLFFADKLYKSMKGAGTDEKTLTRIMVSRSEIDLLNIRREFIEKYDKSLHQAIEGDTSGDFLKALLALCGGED
Assay: pull-down; GST-Annexin A6 on glutathione resin incubated with lysate of HA-EGFR-transfected HEK293T cells (2 h, 4 °C; 50 mM Tris-HCl pH 7.5, 150 mM NaCl, 1.5 mM MgCl2, 1 mM EDTA, 1% Triton X-100, 10% glycerol); washed three times; western blot; only the target purified

## HA-EGFR (from UniProt P00533) (receptor)
  binding: binds

Reference: paper PMC8266800
